# Assay results from the supplement of paper PMC10849652.
# Amino acid sequences for entries named in this document (tags omitted). A change or cut given only in a name is not applied to a line headed by its entry.
# UniProt Q9Y237, whole entry, looked up: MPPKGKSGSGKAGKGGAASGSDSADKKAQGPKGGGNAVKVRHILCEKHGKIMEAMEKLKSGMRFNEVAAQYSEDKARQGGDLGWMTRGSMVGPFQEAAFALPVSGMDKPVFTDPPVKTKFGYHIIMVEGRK
# UniProt Q6P5Z2: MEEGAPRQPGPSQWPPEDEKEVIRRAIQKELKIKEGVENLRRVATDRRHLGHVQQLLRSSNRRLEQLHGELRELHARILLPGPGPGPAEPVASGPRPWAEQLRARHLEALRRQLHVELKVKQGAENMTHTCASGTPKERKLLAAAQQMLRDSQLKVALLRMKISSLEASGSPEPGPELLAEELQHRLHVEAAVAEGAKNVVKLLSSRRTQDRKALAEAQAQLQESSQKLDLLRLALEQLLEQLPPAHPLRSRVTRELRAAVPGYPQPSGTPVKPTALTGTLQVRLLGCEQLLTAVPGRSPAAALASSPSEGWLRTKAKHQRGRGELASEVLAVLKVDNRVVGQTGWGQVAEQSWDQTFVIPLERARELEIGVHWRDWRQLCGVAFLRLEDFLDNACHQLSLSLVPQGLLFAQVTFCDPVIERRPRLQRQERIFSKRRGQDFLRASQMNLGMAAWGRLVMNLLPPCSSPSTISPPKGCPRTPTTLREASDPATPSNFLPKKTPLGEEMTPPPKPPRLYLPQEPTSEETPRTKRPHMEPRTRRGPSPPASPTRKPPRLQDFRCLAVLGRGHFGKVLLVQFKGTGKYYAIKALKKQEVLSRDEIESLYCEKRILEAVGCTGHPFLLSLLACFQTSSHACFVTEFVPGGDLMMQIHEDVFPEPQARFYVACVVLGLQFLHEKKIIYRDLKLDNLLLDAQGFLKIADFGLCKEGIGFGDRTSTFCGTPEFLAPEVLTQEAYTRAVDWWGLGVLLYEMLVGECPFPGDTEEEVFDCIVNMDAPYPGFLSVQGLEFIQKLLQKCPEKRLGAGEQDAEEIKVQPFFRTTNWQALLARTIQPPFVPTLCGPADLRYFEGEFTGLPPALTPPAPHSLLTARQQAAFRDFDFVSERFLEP
# UniProt O00443: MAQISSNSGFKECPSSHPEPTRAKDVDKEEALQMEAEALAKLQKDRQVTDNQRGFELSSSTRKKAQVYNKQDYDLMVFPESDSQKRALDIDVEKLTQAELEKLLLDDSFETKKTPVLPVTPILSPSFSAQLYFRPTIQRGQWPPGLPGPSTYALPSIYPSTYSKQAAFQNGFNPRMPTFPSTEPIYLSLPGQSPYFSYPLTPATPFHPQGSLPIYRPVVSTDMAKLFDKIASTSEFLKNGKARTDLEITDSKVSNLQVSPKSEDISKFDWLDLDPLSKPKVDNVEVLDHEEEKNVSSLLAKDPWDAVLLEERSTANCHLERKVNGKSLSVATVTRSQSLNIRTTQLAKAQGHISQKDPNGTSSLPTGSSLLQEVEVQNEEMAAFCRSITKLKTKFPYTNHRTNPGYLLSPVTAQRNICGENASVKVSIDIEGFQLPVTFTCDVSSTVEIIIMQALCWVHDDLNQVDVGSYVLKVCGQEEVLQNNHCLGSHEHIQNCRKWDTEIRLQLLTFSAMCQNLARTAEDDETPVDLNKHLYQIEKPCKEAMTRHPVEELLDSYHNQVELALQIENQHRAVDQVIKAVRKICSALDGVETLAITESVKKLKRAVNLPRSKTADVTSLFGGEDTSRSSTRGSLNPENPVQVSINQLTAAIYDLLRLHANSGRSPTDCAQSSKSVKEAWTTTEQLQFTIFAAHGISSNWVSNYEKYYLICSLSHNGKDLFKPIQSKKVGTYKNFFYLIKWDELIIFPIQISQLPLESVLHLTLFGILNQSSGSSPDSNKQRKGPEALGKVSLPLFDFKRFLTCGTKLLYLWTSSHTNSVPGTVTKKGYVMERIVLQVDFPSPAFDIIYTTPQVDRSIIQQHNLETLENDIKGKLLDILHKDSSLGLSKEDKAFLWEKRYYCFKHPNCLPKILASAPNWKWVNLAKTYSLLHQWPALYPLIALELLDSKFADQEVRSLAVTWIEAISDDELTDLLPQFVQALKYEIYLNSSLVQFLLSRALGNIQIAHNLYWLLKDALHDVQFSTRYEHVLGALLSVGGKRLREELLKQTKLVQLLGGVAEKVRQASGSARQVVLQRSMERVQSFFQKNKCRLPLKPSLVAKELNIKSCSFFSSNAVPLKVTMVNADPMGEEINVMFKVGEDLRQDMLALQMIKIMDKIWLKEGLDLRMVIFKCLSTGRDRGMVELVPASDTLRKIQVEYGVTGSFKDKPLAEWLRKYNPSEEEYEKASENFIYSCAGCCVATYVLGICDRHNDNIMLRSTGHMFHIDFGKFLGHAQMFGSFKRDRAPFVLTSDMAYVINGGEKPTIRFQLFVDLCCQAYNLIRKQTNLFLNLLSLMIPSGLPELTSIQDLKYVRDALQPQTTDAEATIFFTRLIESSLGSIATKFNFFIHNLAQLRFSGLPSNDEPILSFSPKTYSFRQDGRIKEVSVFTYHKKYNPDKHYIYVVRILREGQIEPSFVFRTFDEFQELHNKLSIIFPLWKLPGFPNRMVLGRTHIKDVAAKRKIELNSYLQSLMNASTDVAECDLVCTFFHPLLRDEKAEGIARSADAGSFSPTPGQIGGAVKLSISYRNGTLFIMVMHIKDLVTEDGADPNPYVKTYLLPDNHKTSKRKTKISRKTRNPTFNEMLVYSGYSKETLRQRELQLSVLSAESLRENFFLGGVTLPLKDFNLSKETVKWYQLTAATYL
# UniProt Q15147: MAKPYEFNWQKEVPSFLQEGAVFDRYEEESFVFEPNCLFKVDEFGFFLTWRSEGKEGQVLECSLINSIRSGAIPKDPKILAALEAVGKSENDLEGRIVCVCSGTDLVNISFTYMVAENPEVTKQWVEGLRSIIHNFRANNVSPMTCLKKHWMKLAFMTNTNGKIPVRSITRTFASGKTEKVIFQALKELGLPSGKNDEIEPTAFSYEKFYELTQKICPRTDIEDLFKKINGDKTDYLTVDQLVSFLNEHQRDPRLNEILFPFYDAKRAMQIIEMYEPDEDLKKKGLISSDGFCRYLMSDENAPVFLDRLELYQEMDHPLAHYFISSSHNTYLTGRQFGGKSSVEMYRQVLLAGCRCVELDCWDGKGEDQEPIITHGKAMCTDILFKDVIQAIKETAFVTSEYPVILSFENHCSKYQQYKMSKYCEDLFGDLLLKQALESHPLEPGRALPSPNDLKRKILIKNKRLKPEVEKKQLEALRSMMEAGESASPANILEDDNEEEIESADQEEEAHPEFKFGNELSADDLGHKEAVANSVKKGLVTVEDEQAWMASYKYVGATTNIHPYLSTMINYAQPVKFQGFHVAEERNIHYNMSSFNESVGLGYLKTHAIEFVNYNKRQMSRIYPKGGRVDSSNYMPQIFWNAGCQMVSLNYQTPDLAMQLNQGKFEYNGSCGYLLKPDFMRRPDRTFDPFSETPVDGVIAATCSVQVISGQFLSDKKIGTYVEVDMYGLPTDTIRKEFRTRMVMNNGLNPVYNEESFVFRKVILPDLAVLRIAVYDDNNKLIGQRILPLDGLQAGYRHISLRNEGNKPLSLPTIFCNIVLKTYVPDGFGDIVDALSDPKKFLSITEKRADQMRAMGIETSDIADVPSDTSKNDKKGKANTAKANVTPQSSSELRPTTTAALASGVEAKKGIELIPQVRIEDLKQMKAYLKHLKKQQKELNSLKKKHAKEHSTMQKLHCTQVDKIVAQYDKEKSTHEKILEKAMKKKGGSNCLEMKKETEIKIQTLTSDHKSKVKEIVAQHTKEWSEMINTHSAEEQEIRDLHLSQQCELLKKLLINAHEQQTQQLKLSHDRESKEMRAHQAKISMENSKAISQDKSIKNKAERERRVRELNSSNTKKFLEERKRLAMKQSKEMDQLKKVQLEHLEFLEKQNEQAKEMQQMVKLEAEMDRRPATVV
# UniProt P48736: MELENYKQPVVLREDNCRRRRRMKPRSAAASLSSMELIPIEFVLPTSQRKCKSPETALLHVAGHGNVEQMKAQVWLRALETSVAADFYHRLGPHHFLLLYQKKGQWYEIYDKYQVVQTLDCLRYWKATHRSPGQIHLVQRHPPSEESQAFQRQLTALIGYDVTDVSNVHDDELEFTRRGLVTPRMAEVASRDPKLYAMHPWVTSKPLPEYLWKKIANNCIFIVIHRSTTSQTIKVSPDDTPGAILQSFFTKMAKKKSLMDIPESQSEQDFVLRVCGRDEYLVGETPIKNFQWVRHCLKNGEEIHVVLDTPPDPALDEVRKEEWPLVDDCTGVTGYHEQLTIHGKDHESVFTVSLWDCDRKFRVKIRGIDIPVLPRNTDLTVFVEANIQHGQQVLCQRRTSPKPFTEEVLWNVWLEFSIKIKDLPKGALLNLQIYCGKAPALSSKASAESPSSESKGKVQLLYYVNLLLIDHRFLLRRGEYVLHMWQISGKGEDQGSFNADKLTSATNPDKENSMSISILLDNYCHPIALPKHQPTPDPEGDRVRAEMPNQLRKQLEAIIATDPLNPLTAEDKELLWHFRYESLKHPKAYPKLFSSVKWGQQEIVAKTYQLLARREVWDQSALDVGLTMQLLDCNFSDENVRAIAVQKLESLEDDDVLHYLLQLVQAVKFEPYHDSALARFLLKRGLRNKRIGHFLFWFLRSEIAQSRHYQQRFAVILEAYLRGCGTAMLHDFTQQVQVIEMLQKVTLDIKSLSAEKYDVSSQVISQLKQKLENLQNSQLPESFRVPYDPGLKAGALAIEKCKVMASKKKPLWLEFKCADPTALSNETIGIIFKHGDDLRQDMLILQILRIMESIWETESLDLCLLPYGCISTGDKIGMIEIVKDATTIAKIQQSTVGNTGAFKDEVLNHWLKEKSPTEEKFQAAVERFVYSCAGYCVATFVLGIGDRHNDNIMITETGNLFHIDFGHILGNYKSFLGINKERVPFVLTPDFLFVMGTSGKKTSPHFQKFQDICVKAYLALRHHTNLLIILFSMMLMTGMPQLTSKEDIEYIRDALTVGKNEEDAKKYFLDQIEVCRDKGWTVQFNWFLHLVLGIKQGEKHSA
# UniProt Q16816: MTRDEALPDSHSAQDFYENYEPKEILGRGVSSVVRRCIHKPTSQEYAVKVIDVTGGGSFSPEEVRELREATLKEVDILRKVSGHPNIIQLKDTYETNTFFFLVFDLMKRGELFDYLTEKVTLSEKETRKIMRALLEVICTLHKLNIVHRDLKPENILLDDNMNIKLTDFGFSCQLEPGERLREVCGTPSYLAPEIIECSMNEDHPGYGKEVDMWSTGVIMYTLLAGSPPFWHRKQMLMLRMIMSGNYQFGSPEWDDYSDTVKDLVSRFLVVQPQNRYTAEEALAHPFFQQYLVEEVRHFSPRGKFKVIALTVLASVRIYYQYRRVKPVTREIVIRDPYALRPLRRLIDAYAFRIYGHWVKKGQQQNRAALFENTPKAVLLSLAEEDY
# UniProt Q03405, whole entry, looked up: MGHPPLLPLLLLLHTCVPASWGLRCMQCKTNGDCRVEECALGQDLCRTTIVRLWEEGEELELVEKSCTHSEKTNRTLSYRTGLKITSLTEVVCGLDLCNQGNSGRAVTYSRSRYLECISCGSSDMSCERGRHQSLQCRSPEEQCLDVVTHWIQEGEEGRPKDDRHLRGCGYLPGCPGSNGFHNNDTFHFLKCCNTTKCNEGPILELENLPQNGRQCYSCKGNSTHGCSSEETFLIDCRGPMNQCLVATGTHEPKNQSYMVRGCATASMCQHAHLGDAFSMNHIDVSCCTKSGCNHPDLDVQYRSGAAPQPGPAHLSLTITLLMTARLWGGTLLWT
# UniProt Q9BZM1: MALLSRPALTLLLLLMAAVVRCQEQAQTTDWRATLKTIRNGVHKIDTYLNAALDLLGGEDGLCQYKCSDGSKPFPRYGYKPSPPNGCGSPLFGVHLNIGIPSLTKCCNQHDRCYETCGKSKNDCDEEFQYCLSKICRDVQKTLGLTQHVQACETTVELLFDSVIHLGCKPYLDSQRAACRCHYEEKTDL
# UniProt Q8N2W9: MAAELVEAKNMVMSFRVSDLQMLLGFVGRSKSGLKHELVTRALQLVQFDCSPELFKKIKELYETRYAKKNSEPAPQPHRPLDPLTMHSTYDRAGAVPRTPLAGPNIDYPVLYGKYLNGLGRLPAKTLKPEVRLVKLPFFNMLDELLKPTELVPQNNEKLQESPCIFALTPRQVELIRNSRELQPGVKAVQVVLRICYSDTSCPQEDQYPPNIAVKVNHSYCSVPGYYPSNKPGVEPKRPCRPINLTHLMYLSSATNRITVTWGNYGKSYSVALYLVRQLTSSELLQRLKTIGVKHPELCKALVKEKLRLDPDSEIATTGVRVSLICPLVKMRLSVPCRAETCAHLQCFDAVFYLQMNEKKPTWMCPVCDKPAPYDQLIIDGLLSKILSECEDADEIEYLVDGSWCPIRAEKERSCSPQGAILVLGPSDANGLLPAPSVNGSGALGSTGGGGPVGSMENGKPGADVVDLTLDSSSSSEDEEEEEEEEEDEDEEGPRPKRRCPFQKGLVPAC
# This is one part of the list.
# Experiments:
# Assay in all cases: log2 fold change, soluble protein after heating vs DMSO (PISA); higher = thermal stabilisation; K562 lysate, 10 uM; active = over 0.2 and 3.5 SD of the protein, either way, in both replicates (recomputed)
# erlotinib = compound: C#Cc1cccc(Nc2ncnc3cc(OCCOC)c(OCCOC)cc23)c1 [erlotinib]
# Outline: (§1)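 K562 pellets were dounce-homogenised in PBS pH 7.4 with 1 mM MgCl2, and the crude extract at 1 mg/mL protein was treated with 10 μM compound for 30 min. Aliquots were heated for 3 min across 48°C-58°C, pooled, and brought to 0.5% NP-40 at 4°C; soluble protein was the supernatant after 21,000xg for 90 min. Soluble protein was quantified by TMTpro 16plex LC-MS/MS with channel sums equalised, and reported as log2 fold change in thermal stability against DMSO controls, with values from duplicates.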
# [1] = compound: C/C(=N\NC(=O)C1=CC(=CC=C1)S(=O)(=O)N2CCOCC2)/C3=C(C=CC(=C3)Cl)O
# Outline: as §1
# [2] = compound: C1=CC(=CC=C1C2=NC3=C(N2)C=C(C=C3)C(=O)N)OC4=CC=C(C=C4)Cl
# Outline: as §1
# [3] = compound: C1=CC2=C(C=CC(=C2)/C=C\3/C(=O)NC(=NCC4=CC=CS4)S3)N=C1
# Outline: as §1
# [4] = compound: C1=CC2=NC=CN=C2C=C1/C=C/3\C(=O)NC(=O)S3
# Outline: as §1
# [5] = compound: C1=CC=C(C=C1)C2=NC(=C(N2)C3=CC=NC=C3)C4=CC(=C(C=C4)Cl)O
# Outline: as §1
# [6] = compound: C1=CC=C2C(=C1)C3=NNC4=CC=CC(=C43)C2=O
# Outline: as §1
# [7] = compound: C1CCN(C1)C(=O)NC2=CC=CC(=C2)NC3=NC=C(C(=N3)NCCC4=CN=CN4)Br
# Outline: as §1
# [8] = compound: C1CN(CCC1(CC2=CC=C(C=C2)Cl)N)C3=NC=NC4=C3C=CN4
# Outline: as §1
# IRAK-1-4 Inhibitor I = compound: C1COCCN1CCN2C3=CC=CC=C3N=C2NC(=O)C4=CC(=CC=C4)[N+](=O)[O-] [IRAK-1-4 Inhibitor I]
# Outline: as §1
# ibrutinib = compound: C=CC(=O)N1CCC[C@@H](n2nc(-c3ccc(Oc4ccccc4)cc3)c3c(N)ncnc32)C1 [ibrutinib]
# Outline: as §1
# [9] = compound: CC(=O)c1cnc2ccc(-c3cc(Cl)c(O)c(Cl)c3)nc2c1N[C@H]1CC[C@H](CN(C)C)CC1
# Outline: as §1
# ralimetinib = compound: CC(C)(C)Cn1c(N)nc2ccc(-c3[nH]c(C(C)(C)C)nc3-c3ccc(F)cc3)nc21 [ralimetinib]
# Outline: as §1
# [10] = compound: CC(C)(O)CC(=O)NCCn1ccc2ncnc(Nc3ccc(Oc4cccc(C(F)(F)F)c4)c(Cl)c3)c21
# Outline: as §1
# [11] = compound: CC(C)C1=C2N=C(C=C(N2N=C1)NCC3=CC=CC=C3)NCCCCCCN
# Outline: as §1
# [12] = compound: CC1=C(C(CC(=O)N1)C2=CC=C(C=C2)C(F)(F)F)C(=O)NC3=C(C=C4C(=C3)C=NN4)F
# Outline: as §1
# [13] = compound: CC1=C(C2=C(C=C1)C(=O)C3=CC=CC=C3N2CCCN)C
# Outline: as §1
# [14] = compound: CC1=C(C=C(C=C1)NC(=O)C2=CC(=CC=C2)C(C)(C)C#N)NC3=CC4=C(C=C3)N=CN(C4=O)C
# Outline: as §1
# [15] = compound: CC1=C(C=C(C=C1)NC(=O)C2=CC(=CC=C2)N(C)C)NC(=O)C3=CC=C(C=C3)O
# Outline: as §1
# [16] = compound: CC1=CC=C(C=C1)SC2=C3C=C(SC3=CN=C2)C(=O)N
# Outline: as §1
Target,log2 fold change (erlotinib),log2 fold change [1],log2 fold change [2],log2 fold change [3],log2 fold change [4],log2 fold change [5],log2 fold change [6],log2 fold change [7],log2 fold change [8],log2 fold change (IRAK-1-4 Inhibitor I),log2 fold change (ibrutinib),log2 fold change [9],log2 fold change (ralimetinib),log2 fold change [10],log2 fold change [11],log2 fold change [12],log2 fold change [13],log2 fold change [14],log2 fold change [15],log2 fold change [16]
PIN4 isoform 2 (UniProt Q9Y237),inactive: -0.012,inactive: -0.003,inactive: 0.025,inactive: -0.031,inactive: -0.008,inactive: -0.021,inactive: 0.033,inactive: 0.033,inactive: 0.004,inactive: 0.016,inactive: 0.022,inactive: 0.016,inactive: -0.016,inactive: -0.064,inactive: -0.026,inactive: -0.062,inactive: 0.012,inactive: -0.043,inactive: 0.013,inactive: -0.017
PKN3 (UniProt Q6P5Z2),inactive: 0,inactive: 0.165,inactive: -0.012,inactive: 0,inactive: -0.007,inactive: 0.124,inactive: 0.022,inactive: 0.014,inactive: -0.029,inactive: 0.008,inactive: 0.061,,inactive: -0.043,inactive: -0.003,inactive: 0.141,inactive: -0.061,inactive: 0.037,inactive: 0.023,inactive: 0.027,
PLCG2 (UniProt P16885),inactive: -0.003,inactive: 0.298,inactive: 0.081,inactive: -0.147,inactive: -0.055,inactive: -0.066,inactive: 0.045,inactive: -0.072,inactive: -0.059,inactive: 0.163,inactive: -0.008,inactive: -0.016,inactive: -0.163,inactive: -0.049,inactive: -0.058,inactive: -0.119,,inactive: -0.011,inactive: 0.154,inactive: -0.037
PIGG (UniProt Q5H8A4),inactive: -0.023,inactive: -0.057,inactive: -0.004,inactive: 0.044,inactive: -0.017,inactive: -0.062,inactive: -0.036,inactive: 0,inactive: 0.011,inactive: 0.008,inactive: -0.014,inactive: -0.002,inactive: 0.066,inactive: -0.069,inactive: 0.044,inactive: 0.038,inactive: -0.032,inactive: 0.059,inactive: -0.018,inactive: -0.003
PIP5K1A (UniProt Q99755),inactive: 0.036,,inactive: -0.14,,inactive: 0.022,inactive: -0.062,,,,inactive: -0.195,inactive: 0.012,inactive: 0.201,inactive: -0.053,inactive: 0.001,inactive: 0,inactive: 0.056,inactive: -0.127,inactive: 0.105,inactive: 0.02,inactive: -0.053
PHLPP1 (UniProt O60346),inactive: 0.163,inactive: 0.039,inactive: -0.035,inactive: 0.012,inactive: -0.065,inactive: -0.014,inactive: -0.011,,,inactive: 0.048,inactive: -0.233,,inactive: 0.04,inactive: 0.123,inactive: 0.104,inactive: 0.06,inactive: -0.045,inactive: 0.016,inactive: -0.146,
PHF8 (UniProt Q9UPP1),inactive: 0.07,inactive: -0.13,inactive: -0.109,inactive: -0.089,,inactive: -0.073,inactive: -0.1,inactive: -0.187,inactive: 0.122,inactive: 0.067,,,inactive: -0.097,inactive: 0.036,inactive: 0.076,inactive: -0.052,,inactive: 0.07,inactive: -0.191,
PIK3C2A (UniProt O00443),inactive: -0.038,,inactive: 0.043,,inactive: -0.017,inactive: 0.02,,inactive: -0.037,inactive: 0.039,inactive: 0.005,inactive: 0.047,inactive: -0.014,inactive: 0.045,inactive: 0.01,inactive: 0.003,inactive: -0.025,inactive: 0.029,inactive: 0.124,inactive: -0.072,inactive: -0.01
PLCB4 isoform 4 (UniProt Q15147),inactive: 0.208,,inactive: -0.531,,,inactive: 0.11,,inactive: 0.315,inactive: 0.067,inactive: -0.23,,inactive: 0.131,inactive: 0.088,inactive: -0.066,inactive: 0.105,,,,inactive: -0.131,inactive: 0.023
PIGN (UniProt O95427),inactive: 0.028,inactive: -0.045,inactive: 0.039,inactive: 0.006,,inactive: -0.029,inactive: -0.081,inactive: 0.086,inactive: -0.064,inactive: 0.035,,inactive: 0.143,inactive: 0.043,inactive: -0.02,inactive: -0.032,,inactive: 0.01,,inactive: -0.014,inactive: -0.042
PHC3 isoform 7 (UniProt Q8NDX5),inactive: -0.016,inactive: 0.03,inactive: -0.187,inactive: 0.053,,,inactive: -0.019,inactive: -0.072,inactive: 0.042,,,inactive: 0.033,,,inactive: 0.165,inactive: 0.026,inactive: -0.047,inactive: 0,,inactive: 0.034
PHF14 (UniProt O94880),,inactive: 0.032,,inactive: -0.01,inactive: -0.06,inactive: -0.086,inactive: 0.045,inactive: -0.423,inactive: 0.432,inactive: 0.035,inactive: -0.014,inactive: 0.03,inactive: -0.024,inactive: -0.055,,active: 0.454,inactive: -0.003,,inactive: -0.042,inactive: -0.128
PIK3CG (UniProt P48736),inactive: 0.045,inactive: 0,inactive: -0.011,inactive: 0.045,,inactive: -0.047,inactive: -0.005,inactive: 0,inactive: 0.003,inactive: -0.011,inactive: -0.017,,inactive: 0.02,inactive: -0.047,inactive: -0.027,inactive: -0.054,inactive: -0.071,inactive: -0.025,inactive: 0.01,
PIAS2 (UniProt O75928),inactive: 0.043,inactive: -0.277,inactive: 0.035,inactive: 0,,inactive: 0.019,inactive: 0.039,inactive: 0.037,inactive: -0.002,inactive: 0.053,,,inactive: 0.019,inactive: 0.006,inactive: -0.017,inactive: 0.039,inactive: 0.052,inactive: -0.001,inactive: -0.002,
PLEK (UniProt P08567),inactive: 0.096,,inactive: -0.133,,,inactive: -0.008,,inactive: 0.025,inactive: -0.024,inactive: -0.049,,,inactive: 0.112,inactive: -0.392,inactive: -0.037,,,inactive: 0,inactive: 0.103,
PHF19 (UniProt Q5T6S3),inactive: -0.089,,inactive: 0.095,,,inactive: -0.013,,,,inactive: -0.054,,,inactive: -0.002,inactive: -0.05,inactive: -0.129,inactive: 0.058,,inactive: -0.066,inactive: 0.099,
PHKG1 isoform 2 (UniProt Q16816),inactive: 0.003,inactive: -0.127,inactive: 0.187,inactive: 0.061,,inactive: 0.029,inactive: 0.399,inactive: 0.157,inactive: 0.014,inactive: -0.102,,inactive: 0.595,inactive: 0.02,inactive: -0.016,inactive: -0.003,inactive: -0.117,inactive: -0.196,inactive: 0.017,inactive: -0.02,inactive: -0.086
PLAUR (UniProt Q03405),inactive: -0.055,,inactive: -0.091,,,,,inactive: 0.033,inactive: -0.046,,,,,,inactive: 0.051,,inactive: 0.152,,,
PIAS1 isoform 2 (UniProt O75925),inactive: -0.032,,inactive: -0.127,,,,,,,,,,,,inactive: 0.181,inactive: -0.455,inactive: -0.152,inactive: -0.032,,
PLA2G12A (UniProt Q9BZM1),inactive: -0.014,inactive: -0.003,inactive: -0.062,inactive: 0.008,inactive: -0.128,inactive: 0.174,inactive: -0.022,,,inactive: -0.031,inactive: -0.187,inactive: -0.061,inactive: -0.107,inactive: 0.025,inactive: -0.002,inactive: 0.059,inactive: -0.065,inactive: -0.118,inactive: -0.117,inactive: -0.102
PIAS4 (UniProt Q8N2W9),inactive: -0.215,inactive: -0.036,inactive: 0.044,inactive: -0.097,,inactive: 0.036,inactive: -0.041,inactive: 0.005,inactive: -0.031,inactive: -0.004,,,inactive: -0.034,inactive: -0.027,inactive: -0.172,inactive: 0.005,inactive: -0.218,inactive: 0.046,inactive: -0.022,

# Some of the entries above in a different format.
Target	log2 fold change (erlotinib)	log2 fold change [1]	log2 fold change [2]	log2 fold change [3]	log2 fold change [4]	log2 fold change [5]	log2 fold change [6]	log2 fold change [7]	log2 fold change [8]	log2 fold change (IRAK-1-4 Inhibitor I)	log2 fold change (ibrutinib)	log2 fold change [9]	log2 fold change (ralimetinib)	log2 fold change [10]	log2 fold change [11]	log2 fold change [12]	log2 fold change [13]	log2 fold change [14]	log2 fold change [15]	log2 fold change [16]
PIAS1 isoform 2 (UniProt O75925)	inactive: -0.032		inactive: -0.127												inactive: 0.181	inactive: -0.455	inactive: -0.152	inactive: -0.032		
PLA2G12A (UniProt Q9BZM1)	inactive: -0.014	inactive: -0.003	inactive: -0.062	inactive: 0.008	inactive: -0.128	inactive: 0.174	inactive: -0.022			inactive: -0.031	inactive: -0.187	inactive: -0.061	inactive: -0.107	inactive: 0.025	inactive: -0.002	inactive: 0.059	inactive: -0.065	inactive: -0.118	inactive: -0.117	inactive: -0.102
